Assay results: patent US20090104177A1, “PEPTIDES FOR INHIBITING THE INTERACTION OF PROTEIN KINASE A AND PROTEIN KINASE A ANCHOR PROTEINS” (FORSCHUNGSVERBUND BERLIN E.V., priority 2004, published 2009)
Entries after “also recorded” stand apart in the source; their conditions may differ. Part of at least one peptide drawing is inferred or uncertain, most often the ends. No end group written: not given here.

Chains of the proteins cited; added tags and fusions are not shown.
UniProt P13861, whole entry: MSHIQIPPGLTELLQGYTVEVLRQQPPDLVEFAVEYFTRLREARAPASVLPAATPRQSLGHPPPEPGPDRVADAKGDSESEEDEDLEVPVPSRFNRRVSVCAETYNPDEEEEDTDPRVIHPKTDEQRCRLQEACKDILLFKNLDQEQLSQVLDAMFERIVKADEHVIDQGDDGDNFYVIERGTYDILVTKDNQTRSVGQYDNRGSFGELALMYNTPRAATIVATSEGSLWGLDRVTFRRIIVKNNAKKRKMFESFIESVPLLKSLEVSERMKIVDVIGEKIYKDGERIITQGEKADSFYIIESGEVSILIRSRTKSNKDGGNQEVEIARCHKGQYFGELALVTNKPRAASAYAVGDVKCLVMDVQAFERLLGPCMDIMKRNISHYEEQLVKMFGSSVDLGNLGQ
UniProt P12369, whole entry: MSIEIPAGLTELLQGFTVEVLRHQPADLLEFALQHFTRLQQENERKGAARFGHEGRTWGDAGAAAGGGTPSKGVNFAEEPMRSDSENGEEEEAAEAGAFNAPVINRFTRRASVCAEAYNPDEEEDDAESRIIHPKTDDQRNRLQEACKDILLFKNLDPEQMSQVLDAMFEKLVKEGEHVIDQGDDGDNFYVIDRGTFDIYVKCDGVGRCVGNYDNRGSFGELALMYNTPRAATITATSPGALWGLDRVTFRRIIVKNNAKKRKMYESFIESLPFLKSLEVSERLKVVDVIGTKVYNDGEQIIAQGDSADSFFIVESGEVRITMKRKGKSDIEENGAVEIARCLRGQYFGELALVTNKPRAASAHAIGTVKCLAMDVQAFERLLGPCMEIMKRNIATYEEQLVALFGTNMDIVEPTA

Experiments:
[1] = target: T1, regulatory RIIα subunits of PKA (Homo sapiens, UniProt P13861); experiment: RII overlay of membrane-bound (SPOT) peptides, radiolabelled RIIα as probe, densitometry; assay type: binding; conditions: for binding to RIIα subunits in RII overlay: human RIIα as probe, in words
T1 construct: Prof; Dr. Friedrich W. Herberg, University of Kassel, Germany (obtained from an academic laboratory, not a vendor)
Excerpt: (§1) Peptide libraries were synthesized by means of automatic SPOT synthesis on Whatman 50 cellulose membranes according to standard protocols using Fmoc chemistry and AutoSpot Robot ATE 222 (Intavis Bioanalytical Instruments AG, Cologne). The protective groups of the amino acid side chains were removed using a mixture of trifluoroacetic acid (TFA) in dichloromethane (DCM) (Frank, 1992; Kramer and Schneider-Mergener, 1998). For control, spots (about 50 nmol of peptide per spot) were cut from the cellulose membrane, removed from the membrane by treatment with 0.05 M NaOH, and analyzed using HPLC and MALDI-TOF mass spectrometry.
(§2) • 1. Regulatory RIIα (human) and RIIβ (rat) subunits of PKA, obtained from Prof. Dr. Friedrich W. Herberg, University of Kassel, Germany. • 2. Catalytic subunits of PKA, Promega, Mannheim, Germany, Order No. V5161 • 3. [γ-^32P]ATP, 5000 Ci/mmol, Amersham Biosciences, Brunswick, Germany, Order No. AA0018 • 4. Sephadex G 50, medium Pharmacia, Order No. 17-0043-01 • 5. Phosphate-buffered saline (PBS)
(§3) The ATP concentration was adjusted to 10 μM by addition of non-radioactive ATP (addition of 5 μl of a 1 mM solution). The batch was incubated on ice for another 50 min.
(§4) The reaction was quenched by adding dextran blue and removing free nucleotides. The free ATP was removed on a Sephadex G50 column.
(§5) Non-incorporated nucleotides were separated from the RII subunits by fractionation on Sephadex G 50 columns. • 1. Swelling of the Sephadex G 50 material: 20 g thereof was allowed to swell in 400 ml of PBS at room temperature overnight. Non-settled material was subsequently removed with a Pasteur pipette. The swollen material was aliquoted in 50 ml Falcon tubes and stored at 4° C. For preservation, sodium azide was added to make a final concentration of 0.01%. • 2. The material was poured into a 10 ml sterile disposable pipette sealed with a glass sphere. To settle the column bed, 50 ml of PBS containing 1 mg/ml BSA (bovine serum albumin) was allowed to pass.
(§6) Until used, the column was sealed with parafilm at the top thereof. • 3. The labelled RII subunits (500 μl), together with dextran blue (70 μl of a 20 mg/ml solution), were applied on the column (overall volume=570 μl). • 4. The sample was allowed to migrate into the matrix, followed by filling up with PBS. • 5. A short time before the dextran blue was eluted, collection of fractions was begun (2 fractions of 1.5 ml each, the other fractions 1 ml each). • 6. To determine the incorporation of ^32P, 1% (5.7 μl) of sample upstream of the column (corresponding to 1% of the radioactivity employed) and 3 μl of each fraction were used. • 7. […] The incorporation rate in % was calculated and the specific activity (cpm/μg of protein) was determined. […]
(§7) • 3. […] RII-binding proteins were detected by exposition on a phosphoimager plate. […]

[2] = target: T2, regulatory RIIβ subunits of PKA (Rattus norvegicus, UniProt P12369); experiment: RII overlay of membrane-bound (SPOT) peptides, radiolabelled RIIβ as probe, densitometry; assay type: binding; conditions: for binding to RIIβ subunits in RII overlay: rat RIIβ as probe, in words
T2 construct: Prof; Dr. Friedrich W. Herberg, University of Kassel, Germany (obtained from an academic laboratory, not a vendor)
Excerpt: as §1, §2, §3, §4, §5, §6, §7

RIIα subunits of the PKA = RIIα subunits of the PKA (Homo sapiens, UniProt P13861); experiment: Summary statement on RIIα binding of AKAP18δ-derived peptides; conditions: in words
Excerpt: We explain this by binding via hydrogen bridges (H bridges) between peptide and RII dimer (see Fig., hydrogen bridges represented by broken lines). Correspondingly, a common feature of the peptides is the minimum number (8) of amino acids forming H bridges.

[3] = RIIα, densitometry of RII overlay signals
[4] = RIIβ, densitometry of RII overlay signals

Sequence	binding weaker than AKAP18δ-L304T and AKAP18δ-L314E [1, 3]	binding weaker than AKAP18δ-wt [1, 3]	binding to RIIα subunits in RII overlay [1]	binding weaker than AKAP18δ-L304T and AKAP18δ-L314E [2, 4]	binding weaker than AKAP18δ-wt [2, 4]	binding to RIIβ subunits in RII overlay [2]	RIIα binding compared with peptides derived from natural AKAPs (RIIα subunits of the PKA)
KGADLIEEAASRIVDAVIEQVKAAG [Ht31, reference compound]	5-6 times	about 5 times	only slightly stronger than binding of the subunits to Ht31-P; also recorded: barely bind	5-6 times	about 5 times	only slightly stronger than binding of the subunits to Ht31-P; also recorded: barely bind	–
PEDAELVRLSKRLVENAVLKAVQQY [AKAP18δ-wt]	–	–	bind strongly	–	–	bind strongly	bind stronger than any other peptide derived from natural AKAPs
